Experimental data: PMC7714070, “The role of the cytoskeletal proteins MreB and FtsZ in multicellular cyanobacteria” (FEBS Open Bio, 2020)
These are yes or no findings as the source states them, for the method shown. Some entries that bind do so weakly or less than the wild type. Sequences can lack the tags named with a protein.

Target: T1, MreB from Fischerella muscicola PCC 7414, BACTH fusion (Fischerella muscicola PCC 7414)
T1 sequence: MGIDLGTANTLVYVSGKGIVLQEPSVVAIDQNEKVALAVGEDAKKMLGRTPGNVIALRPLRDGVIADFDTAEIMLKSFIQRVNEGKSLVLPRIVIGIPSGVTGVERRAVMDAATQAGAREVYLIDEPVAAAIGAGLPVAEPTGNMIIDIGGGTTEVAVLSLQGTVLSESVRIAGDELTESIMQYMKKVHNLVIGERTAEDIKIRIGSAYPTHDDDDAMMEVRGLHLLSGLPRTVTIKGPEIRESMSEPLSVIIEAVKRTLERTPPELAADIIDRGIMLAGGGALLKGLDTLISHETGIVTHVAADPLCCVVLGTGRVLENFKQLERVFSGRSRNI
Test: two-hybrid; bacterial adenylate cyclase two-hybrid (BACTH) in E. coli, T25 and T18 fusions in all possible pairwise combinations, beta-galactosidase assay (Miller units per mg LacZ), three independent colonies

B1: FtsZ from Fischerella muscicola PCC 7414, BACTH fusion (protein, UniProt A0A2N6JXP9 1-430)
chain: MTLDNNQGLTYKNSQSPGQSTFSLAVNSTNPFNHSGLSFGQNNDSKKIEREETRIGDIVPGRVANIKVIGVGGGGSNAVNRMIASDVSGVEFWSINTDAQALTLAAAPSRLQIGQKLTRGLGAGGNPAIGTKAAEESRDEIATALDGADLVFITAGMGGGTGTGAAPIVAEVAKEMGALTVGVVTRPFIFEGRRRISQAEQGIEGLKSRVDTLIIIPNNKLLEVIPEQTPMQEAFRYADDVLRQGVQGISDIITIPGLINVDFADVRAVMADAGSALMGIGIGSGKSRAREAAIAAISSPLLECSIEGARGVVFNITGGSDLTLHEVNAAAETIYEVVDPNANIIFGAVIDDRLQGEVRLTVIATGFTGEAPAAQQSNVTQGRVVQPPPQRRPMQQPPAPNPPTQTPEPKEKGSVLDIPDFLRKRTPPRN
binding: binds
